These are yes or no findings as the source states them, for the method shown. In cells and extracts the contact can be indirect. Some entries that bind do so weakly or less than the wild type. Sequences can lack the tags named with a protein.
T1: MBP-COP1 (Arabidopsis) (UniProt P43254)
T1 sequence: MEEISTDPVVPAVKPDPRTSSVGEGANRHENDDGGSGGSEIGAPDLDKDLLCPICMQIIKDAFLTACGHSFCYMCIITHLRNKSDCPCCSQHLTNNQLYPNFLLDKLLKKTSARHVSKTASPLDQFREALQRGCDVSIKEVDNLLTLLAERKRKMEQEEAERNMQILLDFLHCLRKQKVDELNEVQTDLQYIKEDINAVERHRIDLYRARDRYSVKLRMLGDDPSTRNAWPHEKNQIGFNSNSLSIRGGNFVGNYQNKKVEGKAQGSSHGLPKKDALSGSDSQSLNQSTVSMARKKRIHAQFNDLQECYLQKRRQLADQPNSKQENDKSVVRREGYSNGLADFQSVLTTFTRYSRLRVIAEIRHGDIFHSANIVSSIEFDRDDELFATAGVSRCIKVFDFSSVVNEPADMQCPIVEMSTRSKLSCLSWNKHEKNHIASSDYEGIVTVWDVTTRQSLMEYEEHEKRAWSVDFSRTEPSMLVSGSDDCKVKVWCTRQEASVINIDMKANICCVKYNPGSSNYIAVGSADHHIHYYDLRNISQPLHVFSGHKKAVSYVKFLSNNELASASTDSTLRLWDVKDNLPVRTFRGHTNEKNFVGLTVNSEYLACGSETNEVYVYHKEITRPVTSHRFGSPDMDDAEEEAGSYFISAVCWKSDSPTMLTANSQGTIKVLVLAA

T2: MBP-HY5 (Arabidopsis), O24646
T2 chain: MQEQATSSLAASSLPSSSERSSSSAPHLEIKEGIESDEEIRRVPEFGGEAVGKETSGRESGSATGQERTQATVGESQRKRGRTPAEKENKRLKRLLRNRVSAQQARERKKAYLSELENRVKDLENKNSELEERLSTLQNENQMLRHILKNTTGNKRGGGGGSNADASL


Columns and labels:
MBP-COP1 (Arabidopsis) = target: T1, MBP-COP1 (Arabidopsis); assay: pull-down
[1] = target: T2, MBP-HY5 (Arabidopsis), O24646; assay: pull-down; conditions: remark: other sources report otherwise

Binder | binding (MBP-COP1 (Arabidopsis)) | binding [1]
MYC-DET1 (protein, UniProt P48732 1-543) MFTSGNVTARVFERQIRTPPPGASVNRARHFYENLVPSYTLYDVESPDHCFRKFTEDGLFLISFSRNHQELIVYRPSWLTYSTTDDSTTTLPPLPRRASKFDSFFTQLYSVNLASSNELICKDFFLYHQTRRFGLFATSTAQIHDSSSPSNDAVPGVPSIDKITFVLLRLDDGVVLDERVFLHDFVNLAHNMGVFLYDDLLAILSLRYQRIHLLQIRDSGHLVDARAIGYFCREDDELFLNSSSQAMMSQDKSKQQSLSGSKEDDTGENGLRHSLSQPSGSNSFLSGVKQRLLSFIFREIWNEESDNVMRVQSLKKKFYFHFQDYVDLIIWKVQFLDRQHLLIKFGSVDGGVTRSADHHPAFFAVYNMETTDIVAFYQNSAEDLYQLFEQFSDHFTVSSSTPFMNFVTSHSNNVYALEQLKYTKNKSNSFSQFVKKMLLSLPFSCQSQSPSPYFDQSLFRFDEKLISAADRHRQSSDNPIKFISRRQPQTLKFKIKPGPECGTADGRSKKICSFLFHPHLPLAISIQQTLFMPPSVVNIHFRR | binds | –
MYC-DET1, P48732 1-543 (protein) MFTSGNVTARVFERQIRTPPPGASVNRARHFYENLVPSYTLYDVESPDHCFRKFTEDGLFLISFSRNHQELIVYRPSWLTYSTTDDSTTTLPPLPRRASKFDSFFTQLYSVNLASSNELICKDFFLYHQTRRFGLFATSTAQIHDSSSPSNDAVPGVPSIDKITFVLLRLDDGVVLDERVFLHDFVNLAHNMGVFLYDDLLAILSLRYQRIHLLQIRDSGHLVDARAIGYFCREDDELFLNSSSQAMMSQDKSKQQSLSGSKEDDTGENGLRHSLSQPSGSNSFLSGVKQRLLSFIFREIWNEESDNVMRVQSLKKKFYFHFQDYVDLIIWKVQFLDRQHLLIKFGSVDGGVTRSADHHPAFFAVYNMETTDIVAFYQNSAEDLYQLFEQFSDHFTVSSSTPFMNFVTSHSNNVYALEQLKYTKNKSNSFSQFVKKMLLSLPFSCQSQSPSPYFDQSLFRFDEKLISAADRHRQSSDNPIKFISRRQPQTLKFKIKPGPECGTADGRSKKICSFLFHPHLPLAISIQQTLFMPPSVVNIHFRR | – | binds

Source: doi:10.1101/2020.09.30.318253
